From PMC10813535
Results are given in words; binding and its absence hold for the method and conditions named. Binding seen in cells or lysates may run through a third protein. Some results given as binding are weak or reduced against the parent protein; the word gives no strength.

Target: T1, tumor necrosis factor receptor-associated factor 6 (TRAF6) (mouse (endogenous in BMMs)) (UniProt P70196)
T1 sequence: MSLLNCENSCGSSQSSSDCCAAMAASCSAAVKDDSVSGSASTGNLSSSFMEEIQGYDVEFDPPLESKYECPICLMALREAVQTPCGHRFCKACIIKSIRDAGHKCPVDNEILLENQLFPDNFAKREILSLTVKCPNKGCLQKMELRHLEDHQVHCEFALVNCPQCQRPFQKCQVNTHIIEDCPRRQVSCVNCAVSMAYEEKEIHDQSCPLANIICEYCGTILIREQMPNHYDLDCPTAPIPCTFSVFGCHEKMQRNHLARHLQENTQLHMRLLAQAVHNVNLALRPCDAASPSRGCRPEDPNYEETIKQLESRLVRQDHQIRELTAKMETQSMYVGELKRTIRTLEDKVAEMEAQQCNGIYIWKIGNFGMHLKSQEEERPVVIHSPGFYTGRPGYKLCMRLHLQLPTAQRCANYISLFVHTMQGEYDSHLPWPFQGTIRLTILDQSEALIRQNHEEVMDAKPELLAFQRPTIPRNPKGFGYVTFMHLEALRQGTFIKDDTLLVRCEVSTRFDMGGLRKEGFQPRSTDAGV
Assay: co-IP; total proteins from BMM (RIPA lysate) pre-cleared with control IgG and protein A/G beads; anti-TRAF6 and protein A/G beads overnight; washed 3 times with lysis buffer; WB for CYLD and ubiquitin

B1: cylindromatosis (CYLD) (enzyme, UniProt Q80TQ2 1-952)
chain: MSSGLWSQEKVTSPYWEERIFYLLLQECSVTDKQTQKLLKVPKGSIGQYIQDRSVGHSRVPSTKGKKNQIGLKILEQPHAVLFVDEKDVVEINEKFTELLLAITNCEERLSLFRNRLRLSKGLQVDVGSPVKVQLRSGEEKFPGVVRFRGPLLAERTVSGIFFGVELLEEGRGQGFTDGVYQGKQLFQCDEDCGVFVALDKLELIEDDDNGLESDFAGPGDTMQVEPPPLEINSRVSLKVGESTESGTVIFCDVLPGKESLGYFVGVDMDNPIGNWDGRFDGVQLCSFASVESTILLHINDIIPDSVTQERRPPKLAFMSRGVGDKGSSSHNKPKVTGSTSDPGSRNRSELFYTLNGSSVDSQQSKSKNPWYIDEVAEDPAKSLTEMSSDFGHSSPPPQPPSMNSLSSENRFHSLPFSLTKMPNTNGSMAHSPLSLSVQSVMGELNSTPVQESPPLPISSGNAHGLEVGSLAEVKENPPFYGVIRWIGQPPGLSDVLAGLELEDECAGCTDGTFRGTRYFTCALKKALFVKLKSCRPDSRFASLQPVSNQIERCNSLAFGGYLSEVVEENTPPKMEKEGLEIMIGKKKGIQGHYNSCYLDSTLFCLFAFSSALDTVLLRPKEKNDIEYYSETQELLRTEIVNPLRIYGYVCATKIMKLRKILEKVEAASGFTSEEKDPEEFLNILFHDILRVEPLLKIRSAGQKVQDCNFYQIFMEKNEKVGVPTIQQLLEWSFINSNLKFAEAPSCLIIQMPRFGKDFKLFKKIFPSLELNITDLLEDTPRQCRICGGLAMYECRECYDDPDISAGKIKQFCKTCSTQVHLHPRRLNHSYHPVSLPKDLPDWDWRHGCIPCQKMELFAVLCIETSHYVAFVKYGKDDSAWLFFDSMADRDGGQNGFNIPQVTPCPEVGEYLKMSLEDLHSLDSRRIQGCARRLLCDAYMCMYQSPTMSLYK
Question: With B1 as the binder, how does the binding read?
Answer: binds
